Measured values taken from doi:10.1101/2023.08.31.555658.
These are yes or no findings as the source states them, for the method shown. In cells and extracts the contact can be indirect. Some results given as binding are weak or reduced against the parent protein; the word gives no strength.

Sequences of proteins named here, by UniProt entry; tags and fusion partners are left off. Residues count along the entry.
UniProt P13595, 20-1115: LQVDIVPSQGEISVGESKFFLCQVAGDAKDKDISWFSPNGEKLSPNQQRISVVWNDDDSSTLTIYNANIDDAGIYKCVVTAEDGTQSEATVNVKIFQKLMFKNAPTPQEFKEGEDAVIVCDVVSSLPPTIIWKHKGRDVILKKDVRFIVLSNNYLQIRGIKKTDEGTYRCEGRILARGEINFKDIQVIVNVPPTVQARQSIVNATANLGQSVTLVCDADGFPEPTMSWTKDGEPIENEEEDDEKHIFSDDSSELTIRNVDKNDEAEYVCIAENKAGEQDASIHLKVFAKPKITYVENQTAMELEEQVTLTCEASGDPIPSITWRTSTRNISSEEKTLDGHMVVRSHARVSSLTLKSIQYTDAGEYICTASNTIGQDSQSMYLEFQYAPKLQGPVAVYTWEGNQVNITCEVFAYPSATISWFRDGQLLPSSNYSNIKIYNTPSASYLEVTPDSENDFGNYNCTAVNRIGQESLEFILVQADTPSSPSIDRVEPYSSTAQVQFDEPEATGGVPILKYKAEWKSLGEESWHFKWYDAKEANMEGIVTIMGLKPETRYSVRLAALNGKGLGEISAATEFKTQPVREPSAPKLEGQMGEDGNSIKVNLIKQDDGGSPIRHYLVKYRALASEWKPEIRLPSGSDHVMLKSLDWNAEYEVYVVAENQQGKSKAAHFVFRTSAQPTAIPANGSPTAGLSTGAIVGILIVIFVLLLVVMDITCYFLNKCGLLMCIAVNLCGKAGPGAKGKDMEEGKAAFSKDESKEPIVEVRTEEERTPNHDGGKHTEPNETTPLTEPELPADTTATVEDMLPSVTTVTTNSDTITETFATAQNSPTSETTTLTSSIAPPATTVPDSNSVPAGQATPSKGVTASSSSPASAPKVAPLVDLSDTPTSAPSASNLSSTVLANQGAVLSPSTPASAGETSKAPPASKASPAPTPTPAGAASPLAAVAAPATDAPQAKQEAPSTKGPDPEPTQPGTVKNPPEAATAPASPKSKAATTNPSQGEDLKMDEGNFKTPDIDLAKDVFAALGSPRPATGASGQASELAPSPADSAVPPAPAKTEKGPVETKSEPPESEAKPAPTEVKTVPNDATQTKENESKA

Biological target: PrP^C, the cellular prion protein, of NBH-treated dC2C12 cultures (mouse (endogenous in dC2C12)) (UniProt P04925)
Assay: cross-linking

Q: “neural cell adhesion molecule (NCAM) (from UniProt P13595 20-1115)” was tested. Which binding did it give?
A: binds
